Data taken from paper PMC11997057, “PIN1-SUMO2/3 motif suppresses excessive RNF168 chromatin accumulation and ubiquitin signaling to promote IR resistance” (Nature Communications, 2025).
Results are given in words; binding and its absence hold for the method and conditions named. Binding seen in cells or lysates may run through a third protein. Some entries that bind do so weakly or less than the wild type.

Molecular target: GFP-WT-RNF168 (UniProt Q8IYW5)
Assay: co-IP; GFP-Trap agarose beads, 3-5 mg cleared lysate in NETN lysis buffer (150 mM NaCl, 50 mM Tris-HCl pH 7.5, 2 mM MgCl2, 1% NP-40, Benzonase) at 4 C for 5 h; western blot

binding: binds
Substance: p97/VCP (from UniProt P55072 1-806) (enzyme)
